Laboratory results: US9186340B2, “Ischemia/reperfusion protection compositions and methods of using” (priority 2007, dated 2015)

Experiments:
[1] = tested on: heart of hibernating ground squirrels; test: 13C NMR of heart metabolites after injection of 13C-BHB or 13C-glucose in hibernating ground squirrels; conditions: IP 1 ml of 1 M
[2] = tested on: brain of hibernating ground squirrels; test: 13C NMR of brain extracts after injection of 13C-D-BHB or 13C-glucose in hibernating ground squirrels; format: in vivo, ground squirrel; conditions: 1 ml of 1 M injected

| SMILES | utilization and incorporation into TCA cycle metabolites in heart [1] | generation of lactate in brain [2] | substrate quality in brain relative to glucose ([2]; high-field NMR of brain extracts) | lactate in heart after injection [1] |
| --- | --- | --- | --- | --- |
| C[C@@H](O)CC(=O)O [D-BHB, D-beta-hydroxybutyrate] | metabolic intermediates derived from the TCA cycle were produced at low body temperature | does not result in the generation of a significant amount of lactate | better substrate than glucose |  |
| OC[C@H]1OC(O)[C@H](O)[C@@H](O)[C@@H]1O (some centres unmarked) [^13C-glucose, [1-^13C] glucose] | not utilized as efficiently as BHB |  |  | very large spike in lactate |
